Laboratory results published in US20090048292A1, “SYNERGISTIC COMBINATION” (priority 2007, published 2009).
At least one compound was matched to its structure with a doubt left.

Tests used:
[1] = test system: human SK-Mel28 melanoma cells; assay: MS-275 monotherapy at different dosages in human melanoma model SK-Mel28, second independent experiment (FIG. 2); type: in vivo
[2] = test system: Human SK-MeI 28 melanoma cells; assay: Combination study of ZK 261991 and MS-275 in human SK-Mel 28 melanoma model in NMRI nu/nu nude mice (tumor area, tumor weight); type: in vivo; conditions: daily oral treatment; ZK261991 50 mg/kg/day, MS-275 10 mg/kg, alone or combined; One-Way-ANOVA

Nc1ccccc1NC(=O)c1ccc(CNC(=O)OCc2cccnc2)cc1 [MS-275, 3-pyridylmethyl-N-{4-[(2-amino-phenyl)-carbamoyl]benzyl}carbamate]
reaction of tumor growth, FIG. 2 ([1]; MS-275 5 mg/kg daily): no reaction | reaction of tumor growth, FIG. 2 ([1]; MS-275 10 mg/kg daily): no reaction | reaction of tumor growth, FIG. 2 ([1]; MS-275 25 mg/kg daily): effective reaction | reaction of tumor growth, FIG. 2 ([1]; MS-275 50 mg/kg daily): effective reaction | reaction of tumor growth (tumor area) to treatment, FIG. 3 [2]: only a very small reaction
